We go through 64 compounds from PubChem BioAssay AID493014 (National Center for Advancing Translational Sciences (NCATS), 2011).

The assay is described as follows: qHTS Assay to Find Inhibitors of Chronic Active B-Cell Receptor Signaling. To be noted: ABC-DLBCL IkBa-CBG/CBR reporter, luminescence ratio (green luciferase fused to IkBa over red control in TMD8 lymphoma cells), 4 h. An outline of the steps: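 TMD8 human ABC-DLBCL cells with doxycycline-inducible IκBα–green luciferase fusion and unfused red luciferase, in 0.5% FBS medium; compounds up to 46 uM, 4 h at 37C. Green/red luminescence ratio, filter-overlap corrected, fitted to concentration-response curves.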

Where [1] appears, read: measured here: CBR red luminescence, cell number.
Setting [2] is: measured here: IkBa-CBG green luminescence.

Some of the results follow. The main result of the screen is listed elsewhere. These columns were measured beside it and carry no call. Compounds called inactive in the main read-out are mostly missing here. The note in brackets gives the kind of curve behind each potency; many fits are weak.

A word on the AC50: it is the concentration giving half of the maximal activity seen. With `Oc1ccccc1N=Cc1sc2ccccc2c1Cl`, the AC50 under setting [1] was 13 µM [falling, partial curve]. `O=C(Nc1ccc(Cl)cc1)N1CCC(c2nc(-c3ccc(F)cc3)no2)CC1`: the half-maximal activity concentration (AC50) under setting [1] is 29.1 µM [falling, single point]. Still for that read-out and setting: in the case of `COc1ccc(-c2cn3c(C)c(C(=O)Nc4cccc(C)n4)sc3n2)cc1` it was 1.64 µM [falling, full curve]. Still for that read-out and setting: under `C=Cn1c(N2CCOCC2)nc2c1c(=O)[nH]c(=O)n2C` stands 32.6 µM [falling, single point]. For the compound `CCN(CC)S(=O)(=O)c1ccc(NC(=O)c2ccccn2)cc1`, the concentration at half-maximal activity (AC50) under setting [1] is 29.1 µM [falling, single point].

`Cc1cc(C)cc(-n2c(SCC(=O)NCc3ccco3)nc3ccccc3c2=O)c1`: the AC50 under setting [1] is 29.1 µM [rising, single point]. Same read-out and setting: in the case of `COc1ccccc1N1CCN(C(=O)CN(c2ccc(C)c(C)c2)S(C)(=O)=O)CC1` it was 11.6 µM [rising, partial curve, poor fit]. In the case of `Cc1cc(C2CCCCC2)n(O)c(=O)c1`, the AC50 reads like this: under setting [1], 29.1 µM [rising, single point]; under setting [2], 29.1 µM [falling, single point].

Take `Cc1ccc(C)c(C(=O)COC(=O)c2n[nH]c3ccccc23)c1`: the AC50 under setting [1] was 16.4 µM [falling, single point].

On to `COc1ccc(NC(=O)CNC(=O)c2nn(-c3ccc(OC)c(OC)c3)c(=O)c3ccccc23)c(OC)c1`, for which the concentration at half-maximal activity (AC50) under setting [1] is 17.8 µM [rising, partial curve, poor fit]. The same measure, in the same setting: in the case of `CCOC(=O)/C(N=O)=C(\O)C1CCN(C(=O)OCC)CC1` it was 20.6 µM [falling, single point]. On the same count and under the same terms, under `COc1ccccc1NC(=O)C(=O)NCC1CCCN1S(=O)(=O)c1cccs1` (stereo unspecified) stands 1.84 µM [falling, full curve]; under `CCCN(CCC)CCCNC(=O)C1CCN(S(=O)(=O)CC)CC1`, 0.501 µM [falling, full curve, poor fit]; under `COc1ccc(C)c2sc(N(Cc3cccnc3)C(=O)C3CCCCC3)nc12`, 17.8 µM [falling, single point].

As for `Cc1c(O)c(S(=O)c2ccccc2)c(=O)n(-c2ccccc2)c1-c1ccccc1` (stereo unspecified), the half-maximal activity concentration (AC50) under setting [1] was 25.9 µM [falling, single point]. With `CCOC(=O)CCNC(=O)Nc1ccc2nc(C)n(Cc3ccc(Cl)cc3)c(=O)c2c1`, the AC50 under setting [1] was 35.5 µM [falling, single point]. As to `COc1ccc(-c2cc(C(=O)NNC(=S)NC(=O)c3c(-c4ccccc4)noc3C)[nH]n2)cc1`, under setting [1], the AC50 is 35.5 µM [falling, single point].

For `CCC(C)N1CC(=O)N2C(c3ccc(OC)cc3OC)c3[nH]c4ccccc4c3C[C@H]2C1=O` (stereo partly specified), the half-maximal activity concentration (AC50) under setting [1] was 5.62 µM [rising, single point]. For `OCCNCC(O)Cn1c2ccccc2c2ccccc21` (stereo unspecified), the AC50 under setting [1] is 10 µM [rising, partial curve, poor fit].

For `COc1ccc(Cl)cc1C1=CC(=O)C[C@H](c2ccc(F)cc2)C1`, under setting [1], the AC50 is 25.9 µM [falling, single point].

In the case of `Cc1ccc(C)c(Cn2nnc3c(=O)[nH]c(C4CCN(S(=O)(=O)c5ccc(S(=O)(=O)N(C)C)cc5)CC4)nc32)c1`, the half-maximal activity concentration (AC50) under setting [1] was 20 µM [falling, single point]. `S=C(NCc1ccncc1)Nc1ccc(Cl)cc1`: the concentration at half-maximal activity (AC50) under setting [1] is 1.46 µM [falling, partial curve, poor fit].

With `Cc1ccc(CN2C(=O)N/C(=C\c3cccn3-c3cccc(C(=O)O)c3)C2=O)cc1`, the concentration at half-maximal activity (AC50) under setting [1] was 11.2 µM [falling, partial curve, poor fit]. Still for that read-out and setting: under `COc1ccc(NC(=O)CN(c2ccc(OC)c(Cl)c2)S(=O)(=O)c2ccccc2)c(OC)c1` stands 6.31 µM [rising, single point]. As to `Cn1cnc([N+](=O)[O-])c1Oc1cccc2ccccc12`, the half-maximal activity concentration (AC50) under setting [1] is 14.6 µM [falling, partial curve, poor fit].

For the compound `Clc1cnc(N/N=C/c2ccncc2)c(Cl)c1`, the AC50 under setting [1] was 1 µM [rising, partial curve]. Turning to `O=C(CCl)NNc1nc(-c2ccccc2)c2cc(Cl)ccc2n1`, the AC50 under setting [1] is 22.4 µM [falling, single point]. `Cc1ccc(CNC(=O)c2ccccc2NS(=O)(=O)c2ccc(Cl)nc2)cc1`: under setting [1], the AC50 was 1 µM [rising, partial curve, poor fit]. As for `CC(C)(C)C(=O)Oc1cc(N)n(S(=O)(=O)c2ccccc2)n1`, the AC50 under setting [1] is 29.1 µM [falling, single point]. For `CCCn1c(NC(=O)C2COc3ccccc3O2)nc2ccccc21` (stereo unspecified), the AC50 under setting [1] is 0.291 µM [rising, full curve, poor fit].

Consider `CC(=O)NS(=O)(=O)c1ccc(N=c2ssc3c2-c2cc(C)c(C)cc2NC3(C)C)cc1`, for which the AC50 under setting [1] was 5.17 µM [falling, partial curve]. `O=C(Nc1nc2ccccc2[nH]1)c1cc(F)cc(F)c1`: under setting [1], the AC50 is 2.24 µM [falling, full curve]. `Nc1c(N(Cc2ccco2)C(=O)c2cccc(Cl)c2)c(=O)[nH]c(=O)n1Cc1ccccc1`: under setting [1], the half-maximal activity concentration (AC50) is 0.92 µM [falling, full curve]. In the case of `CCCCn1c(-c2ccc(Cl)c(Cl)c2)nc2cc3[nH]c(=O)c(C(C)C)nc3cc21`, the concentration at half-maximal activity (AC50) under setting [1] is 12.6 µM [falling, single point]. Regarding `CN(Cc1ccccc1)C(=O)COc1ccc(-c2nnco2)cc1`, under setting [1], the AC50 is 6.51 µM [rising, single point]. `COc1ccc(OC)c(NC(=O)CN2c3cccc4cccc(c34)S2(=O)=O)c1`: under setting [1], the AC50 was 5.17 µM [rising, single point]. Regarding `COc1ccc(CNc2nc(NCc3ccc(OC)cc3)c3[nH]cnc3n2)cc1`, the AC50 under setting [1] is 35.5 µM [falling, single point]. With `Cc1ccc(OCCCCN2CCC(C)CC2)cc1`, the AC50 under setting [1] is 12.6 µM [rising, partial curve].

Consider `O=C(Nc1nc2c(s1)CCCC2)C1COc2ccccc2O1` (stereo unspecified), for which the AC50 under setting [1] is 14.6 µM [falling, single point].

As to `COc1ccc(CCNC(=S)NC(=O)c2c(-c3ccccc3Cl)noc2C)cc1OC`, the half-maximal activity concentration (AC50) under setting [1] was 0.708 µM [rising, partial curve, poor fit]. Regarding `Clc1ccc(C2CC(c3ccco3)n3ncnc3N2)cc1Cl` (stereo unspecified), the AC50 under setting [1] is 18.4 µM [falling, single point].

In the case of `CCCOC(=O)c1ccc(NC(=O)c2cccc(S(=O)(=O)N3CCN(C(C)=O)CC3)c2)cc1`, the half-maximal activity concentration (AC50) under setting [1] was 31.6 µM [falling, single point]. Take `Cc1c(N=C2NN=C(c3c[nH]c4ccccc34)CS2)c(=O)n(-c2ccccc2)n1C`: the AC50 under setting [1] was 35.5 µM [falling, single point]. On to `CCCCn1c(SCC(=O)c2ccccc2)nc2c(sc3ccccc32)c1=O`, for which the AC50 under setting [1] was 0.112 µM [rising, full curve, poor fit]. Regarding `C(=C\n1nnc2ccccc21)/c1ccc[nH]1`, the half-maximal activity concentration (AC50) under setting [1] is 23.1 µM [rising, single point].

For the compound `COc1ccc(C(=O)Nc2ccccc2Cc2ccccc2)c(OC)c1`, the AC50 under setting [1] was 6.51 µM [falling, partial curve, poor fit]. For `COc1cc(/C=C(\NC(C)=O)C(=O)O)cc(OC)c1OC`, the AC50 under setting [1] is 14.1 µM [rising, partial curve, poor fit]. As to `COc1cc(/C=N/NC(=O)CC#N)cc(Br)c1O`, under setting [1], the AC50 is 12.6 µM [rising, partial curve, poor fit].

With `CCc1c(C)nc2ncnn2c1N1CCCC(C(=O)NCCc2ccc(OC)cc2)C1` (stereo unspecified), the half-maximal activity concentration (AC50) under setting [1] is 6.31 µM [rising, single point]. For the compound `C/C(=N/NC(=O)c1ccco1)c1ccc(NC(=O)c2ccc(F)cc2)cc1`, under setting [1], the half-maximal activity concentration (AC50) was 29.1 µM [falling, single point]. In the case of `O=c1[nH]c(SCCOc2ccccc2F)nc2ccccc12`, the AC50 by setting is: under setting [1], 22.4 µM [falling, single point]; under setting [2], 12.6 µM [rising, single point].

For `CCN(CC(=O)NCc1ccc(Cl)cc1)C(=O)CSc1cccc(C(F)(F)F)c1`, under setting [1], the AC50 was 16.4 µM [falling, partial curve]. As for `COC(=O)c1[nH]nc2c1C(=O)N(C1CCCCC1)C2=O`, under setting [1], the AC50 is 22.4 µM [rising, single point]. On to `O=C(NC(=S)Nc1ccccn1)c1ccco1`, for which, under setting [1], the concentration at half-maximal activity (AC50) is 11.6 µM [falling, single point]. On the same count and under the same terms, under `O=C(O)CCCC(=O)Nc1ccc(OCc2nc3ccccc3s2)cc1` stands 7.08 µM [rising, full curve, poor fit]; under `COc1cc(/C=N/NC(=O)CN(CCc2ccccc2)S(=O)(=O)c2ccc(NC(C)=O)cc2)cc(OC)c1OC`, 14.6 µM [rising, partial curve, poor fit]; under `CCC1Oc2ccccc2C(=O)N(CC(=O)c2ccc3c(c2)OCCO3)C1=O` (stereo unspecified), 3.16 µM [falling, single point]. In the case of `O=C(CNC(=O)c1ccco1)NCC(=O)OCc1ccccc1Br`, under setting [1], the AC50 was 11.2 µM [rising, partial curve]. On the same count and under the same terms, in the case of `CC(C)OC(=O)c1ccc(N2CCN(c3ccc(F)cc3)CC2)nc1` it was 5.62 µM [rising, full curve]; in that of `Cc1cc(NC(=O)c2ccc(COc3ccc(Cl)c(C)c3)o2)no1`, 20.6 µM [falling, single point]; in that of `Cc1c(Br)cc(C(=O)NCc2ccco2)c(C)c1C`, 2.31 µM [falling, single point]. For the compound `Cc1cccc(C)c1NC(=O)CN(C)C(=O)CCC(=O)N1CCOCC1`, the half-maximal activity concentration (AC50) under setting [1] was 29.1 µM [rising, single point].

Turning to `CC(=O)Nc1ccc(NC(=O)CSc2ccc3nnc(CCNS(=O)(=O)c4ccc(C)cc4)n3n2)cc1`, the AC50 under setting [1] is 7.08 µM [rising, full curve, poor fit]. Same read-out and setting: under `CCCC(O)(c1ccc(OC)cc1)C(CN(C)C)c1ccccc1` (stereo unspecified) stands 29.1 µM [rising, single point].
